Assay [1] has as its target T1, Arl4A T51N fused to the LexA DNA-binding domain (UniProt P40617).
T1 sequence: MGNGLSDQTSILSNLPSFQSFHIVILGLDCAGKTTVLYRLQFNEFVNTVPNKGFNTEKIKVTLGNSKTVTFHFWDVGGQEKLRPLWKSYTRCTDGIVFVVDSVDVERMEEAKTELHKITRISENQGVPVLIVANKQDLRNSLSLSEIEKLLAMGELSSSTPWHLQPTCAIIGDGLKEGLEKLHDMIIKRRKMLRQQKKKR
Description: two-hybrid; yeast strain L40; LexA DNA-binding domain fusions (pBTM116) against Gal4 activation domain fusions; His+ colonies patched on selective plates and assayed for β-galactosidase activity on filters; 30 °C.

Amino acid sequences for entries named in this document (tags omitted). A change or cut given only in a name is not applied to a line headed by its entry.
UniProt P49703: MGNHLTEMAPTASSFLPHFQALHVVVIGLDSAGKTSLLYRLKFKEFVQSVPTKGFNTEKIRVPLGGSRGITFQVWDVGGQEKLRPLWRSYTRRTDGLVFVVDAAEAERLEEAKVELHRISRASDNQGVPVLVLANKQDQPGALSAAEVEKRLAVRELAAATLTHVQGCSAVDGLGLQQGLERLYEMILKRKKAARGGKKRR

Assay [2] deals with Arl4D T51N fused to the LexA DNA-binding domain (UniProt P49703). The description is as above.
Assay [3] concerns the target GST-VPS36 (201–386) A3 mutant (UniProt Q86VN1). Description: pull-down; 2 μg GST fusion protein on glutathione beads with 2 μg His-tagged Arl4A in 1 ml binding buffer (20 mM Tris-HCl pH 8.0, 150 mM NaCl, 5 mM MgCl2, 1 mM EDTA, 1 mM DTT, 10% glycerol, 1% Triton X-100), 1 h at 4 °C; anti-His blot; both purified.
Assay [4] addresses GST-VPS36 (201–386) A4 mutant (UniProt Q86VN1). The assay is described as above.
Assay [5] addresses GST-VPS36 (201–386) A6 mutant (UniProt Q86VN1). The assay is described as above.

No constants are given. Whether binding was seen depends on the method and setting. For part of these data: A result given as binding can be weak or reduced; the word gives no strength. Tags and fused reporters may be left off the sequences shown.

Regarding “VPS36 (201–386) Ala-A4 mutant fused to Gal4 AD (from UniProt Q86VN1) (domain or fragment)”, the binding result in assay [1] is listed as “binds”.

For “VPS36 (201–386) Ala-A3 mutant fused to Gal4 AD (from UniProt Q86VN1) (domain or fragment)”, the binding entry in assay [1] is “binds”.

B1: Gal4 transcriptional activation domain-fused VPS36 (330–386) (domain or fragment, UniProt Q86VN1 330-386)
chain: TVSEKGSLTSEEFAKLVGMSVLLAKERLLLAEKMGHLCRDDSVEGLRFYPNLFMTQS
For the molecule B1, the binding result in assay [2] was “no binding”.

B2: His-tagged Arl4A T51N (protein, UniProt P40617 1-200)
chain: MGNGLSDQTSILSNLPSFQSFHIVILGLDCAGKTTVLYRLQFNEFVNTVPNKGFNTEKIKVTLGNSKTVTFHFWDVGGQEKLRPLWKSYTRCTDGIVFVVDSVDVERMEEAKTELHKITRISENQGVPVLIVANKQDLRNSLSLSEIEKLLAMGELSSSTPWHLQPTCAIIGDGLKEGLEKLHDMIIKRRKMLRQQKKKR
As for B2, the binding result in assay [3], in assay [4] and in assay [5] was “no binding (tested: 2 μg His-tagged Arl4A in 1 ml)” each time.

(Values after paper PMC10687025, “Endosomal Arl4A attenuates EGFR degradation by binding to the ESCRT-II component VPS36” (Nature Communications, 2023).)
